Laboratory results published in article doi:10.1101/2025.11.28.691250.

T1: X chromosome-associated protein 5 (Xap5) (mouse (endogenous in NIH/3T3)) (UniProt Q9WV03)
T1 sequence: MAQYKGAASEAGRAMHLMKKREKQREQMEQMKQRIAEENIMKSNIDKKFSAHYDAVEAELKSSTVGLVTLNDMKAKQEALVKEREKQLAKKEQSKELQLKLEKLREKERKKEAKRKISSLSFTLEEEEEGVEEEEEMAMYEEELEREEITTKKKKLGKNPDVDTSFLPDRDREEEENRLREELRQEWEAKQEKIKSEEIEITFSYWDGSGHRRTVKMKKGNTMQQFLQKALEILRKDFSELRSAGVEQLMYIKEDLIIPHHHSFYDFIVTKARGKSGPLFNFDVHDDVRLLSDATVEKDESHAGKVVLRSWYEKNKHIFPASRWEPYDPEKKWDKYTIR


Columns and labels:
[1] = target: T1, X chromosome-associated protein 5 (Xap5) (mouse (endogenous in NIH/3T3)); assay: affinity purification with mass spectrometry
[2] = target: T1, X chromosome-associated protein 5 (Xap5) (mouse (endogenous in NIH/3T3)); assay: affinity purification with mass spectrometry; remark: listed apart in the source

binding [1] | binding [2] | Molecule
binds |  | H2afx (from UniProt P27661 1-143)
 | binds | Non-POU domain-containing octamer-binding protein (Nono) (protein, UniProt Q99K48 1-473) MQSNKAFNLEKQNHTPRKHHQHHHQQHHQQQQQQQQQQPPPPIPANGQQASSQNEGLTIDLKNFRKPGEKTFTQRSRLFVGNLPPDITEEEMRKLFEKYGKAGEVFIHKDKGFGFIRLETRTLAEIAKVELDNMPLRGKQLRVRFACHSASLTVRNLPQYVSNELLEEAFSVFGQVERAVVIVDDRGRPSGKGIVEFSGKPAARKALDRCSEGSFLLTTFPRPVTVEPMDQLDDEEGLPEKLVIKNQQFHKEREQPPRFAQPGSFEYEYAMRWKALIEMEKQQQDQVDRNIKEAREKLEMEMEAARHEHQVMLMRQDLMRRQEELRRMEELHNQEVQKRKQLELRQEEERRRREEEMRRQQEEMMRRQQEGFKGTFPDAREQEIRMGQMAMGGAMGINNRGAMPPAPVPPGTPAPPGPATMMPDGTLGLTPPTTERFGQAATMEGIGAIGGTPPAFNRPAPGAEFAPNKRRRY
 | binds | Sfpq (protein, UniProt Q8VIJ6 1-699) MSRDRFRSRGGGGGGFHRRGGGGGRGGLHDFRSPPPGMGLNQNRGPMGPGPGGPKPPLPPPPPHQQQQQPPPQQPPPQQPPPHQQPPPHQPPHQQPPPPPQESKPVVPQGPGSAPGVSSAPPPAVSAPPANPPTTGAPPGPGPTPTPPPAVPSTAPGPPPPSTPSSGVSTTPPQTGGPPPPPAGGAGPGPKPGPGPGGPKGGKMPGGPKPGGGPGMGAPGGHPKPPHRGGGEPRGGRQHHAPYHQQHHQGPPPGGPGPRTEEKISDSEGFKANLSLLRRPGEKTYTQRCRLFVGNLPADITEDEFKRLFAKYGEPGEVFINKGKGFGFIKLESRALAEIAKAELDDTPMRGRQLRVRFATHAAALSVRNLSPYVSNELLEEAFSQFGPIERAVVIVDDRGRSTGKGIVEFASKPAARKAFERCSEGVFLLTTTPRPVIVEPLEQLDDEDGLPEKLAQKNPMYQKERETPPRFAQHGTFEYEYSQRWKSLDEMEKQQREQVEKNMKDAKDKLESEMEDAYHEHQANLLRQDLMRRQEELRRMEELHSQEMQKRKEMQLRQEEERRRREEEMMIRQREMEEQMRRQREESYSRMGYMDPRERDMRMGGGGTMNMGDPYGSGGQKFPPLGGGGGIGYEANPGVPPATMSGSMMGSDMRTERFGQGGAGPVGGQGPRGMGPGTPAGYGRGREEYEGPNKKPRF

Like-named read-outs stand apart in the source and are kept apart here. No constants are given. Whether binding was seen depends on the method and setting. In cells and extracts the contact can be indirect. A yes stands for co-enrichment or nearness to the bait. Other partners may have been found.
